Measurements taken from article PMC2834713.
These are yes or no findings as the source states them, for the method shown. In cells and extracts the contact can be indirect. Some results given as binding are weak or reduced against the parent protein; the word gives no strength. Tags and fused reporters may be left off the sequences shown.

T1: S. cerevisiae Ifh1-Myc (S. cerevisiae) (UniProt P39520)
T1 sequence: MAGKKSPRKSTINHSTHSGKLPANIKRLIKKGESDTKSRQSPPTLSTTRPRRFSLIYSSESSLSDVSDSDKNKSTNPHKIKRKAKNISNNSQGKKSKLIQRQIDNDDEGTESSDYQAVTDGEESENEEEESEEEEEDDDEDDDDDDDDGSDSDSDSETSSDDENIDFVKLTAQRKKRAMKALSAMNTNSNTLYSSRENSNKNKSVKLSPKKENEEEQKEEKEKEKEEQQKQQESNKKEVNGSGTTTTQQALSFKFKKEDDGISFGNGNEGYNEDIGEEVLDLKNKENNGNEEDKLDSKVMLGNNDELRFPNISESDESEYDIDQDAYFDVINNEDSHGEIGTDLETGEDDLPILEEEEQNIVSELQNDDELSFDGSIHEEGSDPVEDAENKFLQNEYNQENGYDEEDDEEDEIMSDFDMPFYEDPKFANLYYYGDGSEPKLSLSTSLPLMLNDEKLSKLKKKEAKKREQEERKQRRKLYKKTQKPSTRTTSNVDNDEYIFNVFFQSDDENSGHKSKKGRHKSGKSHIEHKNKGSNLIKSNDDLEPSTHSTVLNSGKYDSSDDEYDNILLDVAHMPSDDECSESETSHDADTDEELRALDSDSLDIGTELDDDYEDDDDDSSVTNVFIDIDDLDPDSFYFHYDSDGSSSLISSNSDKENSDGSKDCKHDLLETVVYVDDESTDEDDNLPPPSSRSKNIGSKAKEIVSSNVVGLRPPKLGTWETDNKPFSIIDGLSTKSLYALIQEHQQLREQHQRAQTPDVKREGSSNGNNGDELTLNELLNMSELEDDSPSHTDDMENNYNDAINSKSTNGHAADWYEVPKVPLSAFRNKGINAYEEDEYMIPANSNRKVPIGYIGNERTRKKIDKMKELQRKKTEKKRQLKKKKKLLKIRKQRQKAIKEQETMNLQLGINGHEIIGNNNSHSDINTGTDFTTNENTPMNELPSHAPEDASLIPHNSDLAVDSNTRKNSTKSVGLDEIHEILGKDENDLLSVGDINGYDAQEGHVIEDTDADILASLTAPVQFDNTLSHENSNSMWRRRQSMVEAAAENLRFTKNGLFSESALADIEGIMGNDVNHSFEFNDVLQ

T2: C. albicans Ifh1-Myc (C. albicans) (UniProt Q5AG97)
T2 sequence: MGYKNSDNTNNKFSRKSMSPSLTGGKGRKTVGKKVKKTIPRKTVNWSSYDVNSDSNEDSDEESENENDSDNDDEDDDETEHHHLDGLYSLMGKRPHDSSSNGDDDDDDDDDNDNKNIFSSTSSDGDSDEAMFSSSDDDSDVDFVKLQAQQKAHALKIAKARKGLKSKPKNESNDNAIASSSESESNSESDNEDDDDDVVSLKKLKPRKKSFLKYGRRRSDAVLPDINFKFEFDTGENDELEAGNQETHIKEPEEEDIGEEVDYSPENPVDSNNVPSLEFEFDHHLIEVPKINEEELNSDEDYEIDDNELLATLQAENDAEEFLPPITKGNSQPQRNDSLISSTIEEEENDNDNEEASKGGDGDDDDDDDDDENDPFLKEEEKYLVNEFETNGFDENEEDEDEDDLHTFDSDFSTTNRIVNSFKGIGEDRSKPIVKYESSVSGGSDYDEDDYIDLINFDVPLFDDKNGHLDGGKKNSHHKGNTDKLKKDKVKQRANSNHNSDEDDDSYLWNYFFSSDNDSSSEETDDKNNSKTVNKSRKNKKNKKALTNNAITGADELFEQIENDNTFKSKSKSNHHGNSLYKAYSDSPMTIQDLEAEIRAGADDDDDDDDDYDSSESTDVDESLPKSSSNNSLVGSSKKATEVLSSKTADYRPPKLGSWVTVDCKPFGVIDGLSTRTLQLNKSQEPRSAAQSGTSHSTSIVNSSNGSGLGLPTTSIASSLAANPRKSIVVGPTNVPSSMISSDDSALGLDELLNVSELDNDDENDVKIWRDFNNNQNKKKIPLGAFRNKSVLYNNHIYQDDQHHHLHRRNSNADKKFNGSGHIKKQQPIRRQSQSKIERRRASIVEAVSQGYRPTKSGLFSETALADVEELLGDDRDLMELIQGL


Assays:
[1] = target: T1, S. cerevisiae Ifh1-Myc (S. cerevisiae); assay: co-IP; lysates in IP150 buffer (50 mM Tris-HCl pH 7.4, 150 mM NaCl, 2 mM MgCl2, 0.1% NP40); 1 mg total protein on anti-Myc (9E10) or anti-HA (12CA5) beads, 4°C overnight; blot with anti-Myc or anti-HA; cells also treated with rapamycin, heat shock, osmotic shock or hypoxia
[2] = target: T2, C. albicans Ifh1-Myc (C. albicans); assay: as above

binding [1] | binding [2] | Binder
binds | – | S. cerevisiae Fhl1-HA (protein, UniProt P39521 1-936) MDGEMAIIESSNHVGTSSPTTETQFTIDSSALKDQETKESITNSPTSEVPIETKLPKSSDIVTEEKHPQNTTTDIENEVENPVTDDNGNLKLELPDNLDNADFSKLLEFDAKNDEALFNSNELLSHTMDPVNNIDLTHDHSREVSSKEDINIEPVNPDEDEREKTQDNTAAVKTEGIRNSEDTSIQKDEPTADAIYTDVHKLSVNKDTETLPTLVDEKNNMLHMRNNSITPIMFQQHELVGQPPQNTVTENNSTDAETTQRKLSEPIDASLPLPNEQPTIFAYARLDFQSFTFYVQTLHAIIGRRSENDFSHKVDVNLGPSKSISRRHAQIFYNFGTGRFELSIIGKNGAFVDDIFVEKGNTVPLRNKTKIQIGQIPFQFILPEQERNDDSKSPENADIAESEINTRNLKKNEPKSKKKITTGAKPKKAQTKPAVKKEKKPPKIPKKVYTLEEIPVEYRTKPTVSYSAMLTTCIRKYSTAKGMSLSEIYAGIRELFPYYKYCPDGWQSSVRHNLSLNKSFRKVSKEGKGWLWGLDEEYIAERERQKKKQSEIAVAKAQAAQLKLEQQQHKLQQVPQRGKKDIVSQRSNVNARKQNISQTLAANRAASNRKNTASDNQRTMKYLQEQLVILTRDRKGLSKQVIAAILTQALAMTINQVTQAAKNKGITGNPLTALMDKNPQHLNLILAAAVNAATAKVTKGEVKQLVNPETTAAAALAAKAQHSKPIRQPIVQTPHVPDRPPSQLSASASSHPNNYLHDKQPGSFDPSSLSRFFQPRQNARATSSVAATSVPAAASQNVDAQPKPKPAQDNDLESESGTSSSSSSSSESGSESDSGSDDGSASGSGDNSSTSSESESESDSGSEVDEKNNKNEKIDSESIKNNESKDDIPSKDENSSNDNREISKTDEEGHDSKRRKVSEDINEGITEVNVSLEEKL
– | binds | C. albicans Fhl1-HA (protein, UniProt Q59ZC8 1-1152) MSHIDGDDHMTKDLIDSLESKDNDLSLVTSNTQIPDVEVANLTHDADEINQLFDTATNNVLPESNKKDKPIDTQDLHEDDPKAVPKTTSNGESTSNSNSVSPKLLPNDGKSTPKIQKELRRKSTFVPVTSNSKSLEPSEDDNNNNNNNSRISAYARLDFENFTFFVQTLQVVLGRKSNDETLQQNVDVHLSSKKAISRRHAKIFYNFGTQRFEISILGRNGAFVDNVFVEKGLTIPLTDGNKIQIGDIPFKFVLPSNEPNEENNNQDSSEKQFNPSDAINLRSNLYSKSSSPQSSPKRKPQPSKKVKKEPVSASNTSKDIKPTPPVPTTAISPTASISTSTNAATAATATTPATTTAARKNSINRRNSLLKIRRLSNARRKSLAANDEINELLKDLGVTSIDEINEEDSELLDAQIQSLLDEDNENLGGIEDSLMKLAEFNESAIDDDDDDEEGNENSQADLDRLEKTMEHDAIDDEIKAIDSNLTLLDDEISKLTPLINDTNQGLLEEKETKKKQLEEEKRKKQLQQLQHKNSLAKFPRRSAPLMGKPASIQPPASSSIYSRINGLDKIGKTVSPRPPPPKLIAPVLRVTAEPSAIRSRPPLRAITVSDSSYIATFSYPKTIEEPSKYPKPKVKKEHHKKHSKKVYSLDEIPEPYRSKPNISFQIMITNVLKTEAARNGLIINEITEAIKEVYPYYKYCTDGWQFSINHCIKFTKIYKRLQKRGSEWLYAMDELYINERENIRIKQREIAKAKAKAEALRQEEIRQRQRLEAQKSLPHNIVGRNFASPYANTRVPPNQYNQFSQSSSSSSSSATTTTNGQYGSTTMVGGTSPQAGSIRAQLAAVRGNGNTPATTSTTPSLPAMNDPKTKKSLEYLQKELFTLYKARKLTYDTQTATSLITKAVATTIAQVNSIGAKAGAGDNALVFLVERAPEKVSKILDIALTKSIKEHEGIASKSPSQPATPGMRPEQLTTTSQSAATPTTTPQISNLQSLPVKPPISTPLPQVPQQQVSGVNIPGPIATPNIGVTSGVGNLGTTSIGTPTPTQIQSPATSVIPAMQSPQKPVSTPIPTSVPVPLPVPSAPLARPPSFGKPPGAGSSLSRPKAFGKPPGAGSSLSRPPTFLSNKPSYKRELEDDEEEGEQATNKIAKTE
